Source: PubChem BioAssay AID1745846 (National Center for Advancing Translational Sciences (NCATS), 2022)
Hit rate of the full screen: of about 1,400 compounds, about 30 (2%) were called active. Inconclusive results (about 15%) are left out. Calls follow the shape of the dose curve; as a rule, active = well fitted inhibition curve with a large enough effect; inconclusive = small, poorly fitted or top-dose-only effect; inactive = flat fitted curve, though single readings scatter. Some of the results follow.

Assay: Firefly Luciferase Counterscreen for Inhibitors of ATXN expression
Conditions: luminescence; series mostly up to 57.5 µM; activity change, negative = inhibition: at the top concentration
Summary of the method: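 Recombinant firefly luciferase at 10 nM final in 50 mM Tris pH 7.5, 10 mM MgCl2, 0.05% BSA, 0.01% Tween20 with substrate; compounds up to 57 uM final, 10 min room temperature, end-point luminescence. Buffer-only wells define 100% inhibition.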
% is scaled to controls: 0 for no effect and ±100 for the full control effect.

| Compound | activity change, negative = inhibition |
| --- | --- |
| CCc1ccc(-n2cc(-c3ccc(F)cc3)[n+]3c2SCCC3)cc1 | inactive: 3.4% |
| O=C(Nc1ccc(Cl)cc1)Nc1nc(-c2sccc2Br)cs1 | inactive: -1.61% |
| COc1cccc2c1C(CO)N1C(C#N)C3CC(C(=O)O)C(C1C2)N3C (stereo unspecified) | inactive: 0.962% |
| Cc1onc(-c2ccccc2)c1C(=O)N/N=C/c1c[nH]c2ccccc12 | inactive: -8.22% |
| CSc1sc(C(=O)NN)c2c1C1(CCC2)SCCS1 | inactive: -4.96% |
| CC1(S(=O)(=O)O)CC(=O)c2ccccc2C1=O (stereo unspecified) | inactive: -2.15% |
| Cn1nnnc1Sc1ncnc2scc(-c3cccc(S(C)(=O)=O)c3)c12 | inactive: -1.18% |
| COc1cnc(-c2ccccn2)nc1Oc1c(C)cccc1C | inactive: -1.47% |
| CC(=O)NC(c1ccc(C(C)C)cc1)c1ccc2cccnc2c1O (stereo unspecified) | inactive: -3.44% |
| CC[n+]1ccccc1/C=C1\Sc2ccc(C)cc2N1C | inactive: -0.952% |
| Cc1ccc(OCCNC(=O)c2cncc(Br)c2)cc1C | inactive: -5.36% |
| Cc1c(C(=O)NCc2ccc(C(F)(F)F)cc2)sc(=O)n1Cc1cccc(F)c1 | inactive: -0.409% |
| CN(/N=C/c1cc(Br)cc(Br)c1O)c1cccc(C(F)(F)F)n1 | inactive: -13.2% |
| CCc1c(C)nc2ncnn2c1N1CCC(C(=O)Nc2ccc(C)cc2)CC1 | inactive: 0.0478% |
| O=C(Nc1cnn(C23CC4CC(CC(C4)C2)C3)c1)c1cnn2c(C(F)(F)F)cc(-c3ccco3)nc12 | inactive: -6.3% |
| COc1ccc(Cc2[nH]n3c(=O)cc(C(C)C)nc3c2-c2ccccc2)cc1 | inactive: -12.5% |
| FC(F)(F)c1nc(-c2cccs2)ncc1-c1nnnn1-c1ccc(Cl)cc1 | inactive: -3.04% |
| C=CCc1cccc(/C=N/NC(=O)CNc2ccccc2OC)c1O | inactive: -5.48% |
| Oc1ccc(C2CNCc3sccc32)cc1O (stereo unspecified) | inactive: -13.3% |
| NNc1ncnc2sc3c(c12)CCC3 | inactive: -1.71% |
| Cc1ccc(C(=O)COC(=O)c2ccc3c(c2)C(=O)N(c2cccc4ncccc24)C3=O)cc1 | inactive: -15.1% |
| C=CCn1cnc2c(c1=O)c1nc3ccccc3nc1n2/N=C/c1cc(OC)c(OC)c(OC)c1 | inactive: -1.89% |
| NNc1nc(N)c2c(n1)-c1ccccc1CC21CCCC1 | inactive: 0.0887% |
| CCn1c(COc2ccccc2C)nnc1SCC(=O)N1CCN(c2ccccc2)CC1 | inactive: -2.47% |
| Cc1cccn2c(=O)c(/C=C(\C#N)C(N)=O)c(N3CCN(c4cccc(Cl)c4)CC3)nc12 | inactive: 0.85% |
| COc1cccc(Nc2nc(C(N)CCc3ccccc3)cs2)n1 (stereo unspecified) | inactive: 4.9% |

Filtered by structure: those above containing a cyano group

| Compound | activity change, negative = inhibition |
| --- | --- |
| COc1cccc2c1C(CO)N1C(C#N)C3CC(C(=O)O)C(C1C2)N3C (stereo unspecified) | inactive: 0.962% |
| Cc1cccn2c(=O)c(/C=C(\C#N)C(N)=O)c(N3CCN(c4cccc(Cl)c4)CC3)nc12 | inactive: 0.85% |

Next structures

| Compound | activity change, negative = inhibition |
| --- | --- |
| COc1cc(Br)cc(/C=N/NC(=O)Cc2ccc(C(F)(F)F)cc2[N+](=O)[O-])c1O | inactive: -1.33% |
| O=C(CNC(=O)c1ccccc1)N/N=C/c1cc(Br)ccc1O | inactive: -0.948% |
| O=C(N/N=C\c1cccnc1)c1cc(-c2ccccc2)nc2c(Cl)cccc12 | inactive: -13.5% |
| Cn1c(SCC(=O)N/N=C/c2ccc([N+](=O)[O-])s2)nnc1-c1ccccc1 | inactive: -6.84% |
| CC[C@]12c3[nH]c4ccc(Cl)cc4c3CCN1C(=O)[C@@H](CC(=O)NCC13CC4CC(CC(C4)C1)C3)C[C@@H]2C(=O)N1CCN(C(=O)C2CC2)CC1 | inactive: 1.42% |
| Cc1nc(C(F)(F)F)c(C(=O)N/N=C(\N)c2ccccn2)s1 | inactive: -2.72% |
| Cc1ccccc1C(=O)N1CCN(c2ccc(NC(=O)c3ccco3)cc2Cl)CC1 | inactive: -0.668% |
| Cc1ccc(C(C)C)c(OCc2ccc(C(=O)N/N=C/c3ccc(O)cc3O)cc2)c1 | inactive: -15.1% |
| O=C(N/N=C/c1cc([N+](=O)[O-])ccc1O)c1c[nH]c2ccccc12 | inactive: -4.35% |
| Cc1cccc(N(CC(O)CON=C2c3ccccc3-c3ccccc32)S(C)(=O)=O)c1 (stereo unspecified) | inactive: -7.18% |
| Cc1nc2c(OCc3cccc(Cl)c3)cccn2c1N(C)Cc1cccs1 | inactive: -9.31% |
| O=C(C1CCCCC1)N1CCN(c2ccnc3cc(Cl)ccc23)CC1 | inactive: 1.61% |
| COc1ccc(/C=C/C(=O)Nc2cccc(F)c2)cc1S(=O)(=O)N1CCOCC1 | inactive: -7.77% |
| O=C1c2cc(Cl)ccc2-c2c(O)cc(Cl)cc21 | inactive: -11.7% |
| CCN(CC)S(=O)(=O)c1cc(NC(=O)C2CCN(c3ncnc4sc(C)c(C)c34)CC2)ccc1Cl | inactive: 4.54% |
| Cc1cc(Oc2ccc(Cl)cc2)nc(-c2ccccn2)n1 | inactive: 1.53% |
| NS(=O)(=O)c1ccc(N2N=C(c3ccc(Br)cc3)CC2c2ccc(F)cc2)cc1 (stereo unspecified) | inactive: -2.5% |
| CCOc1cc(/C=N\NC(=O)c2ccc(NC(=O)CC)cc2)ccc1OC(=O)c1ccccc1 | inactive: 2.07% |
| C/C(=C\C(=O)c1ccc(Br)cc1)NNC(=O)c1ccc(O)cc1 | inactive: 2.14% |
| Cc1nnc(N/N=C/c2ccccn2)[nH]c1=O | inactive: -3.48% |
| CN(C)CCC(c1ccc(Br)cc1)c1ccccn1 (stereo unspecified) | inactive: 4.51% |
| Fc1ccc2[nH]c3c(N4CCc5ccccc5C4)ncnc3c2c1 | inactive: -4.07% |
| S=C(Nc1cc(Cl)ccc1Oc1ccccc1)N1CCN(c2ccccn2)CC1 | inactive: -1.6% |
| Cc1ccc(S(=O)(=O)/C(=C/Cl)NC(=O)c2ccccc2)cc1 | inactive: 2.33% |
| CN(C)CCNc1ncnc2c1ncn2[C@H]1CN(Cc2ccc(-c3ccccc3)cc2)C[C@@H](CO)O1 | inactive: -0.281% |
